No constants are given. Whether binding was seen depends on the method and setting. Binding seen in cells or lysates may run through a third protein. Here binding means that the protein was enriched with, or labelled near, the bait; the list need not be complete.
Target: NLRP3 (bait of the LC-MS screen) (UniProt Q96P20)
Experiment: affinity purification with mass spectrometry; LC-MS of an NLRP3 precipitate to screen proteins that interact with NLRP3; cells and construct not stated (ref. 21)

Sequences of proteins named here, by UniProt entry; tags and fusion partners are left off.
UniProt Q96P20: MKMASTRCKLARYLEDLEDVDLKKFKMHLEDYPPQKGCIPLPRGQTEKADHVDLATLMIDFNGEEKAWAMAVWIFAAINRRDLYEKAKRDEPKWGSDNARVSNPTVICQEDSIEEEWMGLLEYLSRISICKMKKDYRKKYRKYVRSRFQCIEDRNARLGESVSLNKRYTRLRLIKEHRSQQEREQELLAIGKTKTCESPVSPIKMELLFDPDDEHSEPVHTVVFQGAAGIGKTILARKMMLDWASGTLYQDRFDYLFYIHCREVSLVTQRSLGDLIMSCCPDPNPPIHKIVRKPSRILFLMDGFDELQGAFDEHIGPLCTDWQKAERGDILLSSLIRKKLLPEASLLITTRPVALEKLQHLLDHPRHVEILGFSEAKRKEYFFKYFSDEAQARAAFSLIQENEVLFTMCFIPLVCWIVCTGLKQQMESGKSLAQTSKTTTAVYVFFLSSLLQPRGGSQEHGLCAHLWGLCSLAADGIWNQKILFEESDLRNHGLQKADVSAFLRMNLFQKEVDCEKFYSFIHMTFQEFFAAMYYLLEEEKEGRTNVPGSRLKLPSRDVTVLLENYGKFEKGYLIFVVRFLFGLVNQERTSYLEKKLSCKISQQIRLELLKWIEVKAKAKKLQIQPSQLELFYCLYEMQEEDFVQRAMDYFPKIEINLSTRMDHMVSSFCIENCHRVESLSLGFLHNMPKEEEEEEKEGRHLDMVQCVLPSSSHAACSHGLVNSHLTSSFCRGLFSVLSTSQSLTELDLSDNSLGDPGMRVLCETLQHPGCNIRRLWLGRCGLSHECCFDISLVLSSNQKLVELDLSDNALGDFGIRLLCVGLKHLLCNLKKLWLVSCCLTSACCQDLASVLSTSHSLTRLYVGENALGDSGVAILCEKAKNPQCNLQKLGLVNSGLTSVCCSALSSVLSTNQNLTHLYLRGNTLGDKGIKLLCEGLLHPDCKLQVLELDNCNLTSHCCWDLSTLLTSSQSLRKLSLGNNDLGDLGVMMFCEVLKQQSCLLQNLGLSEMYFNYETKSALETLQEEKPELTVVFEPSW

binding: binds
B1: TRIM65 (found in the NLRP3 precipitate by LC-MS) (protein, UniProt Q6PJ69 1-517)
chain: MAAQLLEEKLTCAICLGLYQDPVTLPCGHNFCGACIRDWWDRCGKACPECREPFPDGAELRRNVALSGVLEVVRAGPARDPGPDPGPGPDPAARCPRHGRPLELFCRTEGRCVCSVCTVRECRLHERALLDAERLKREAQLRASLEVTQQQATQAEGQLLELRKQSSQIQNSACILASWVSGKFSSLLQALEIQHTTALRSIEVAKTQALAQARDEEQRLRVHLEAVARHGCRIRELLEQVDEQTFLQESQLLQPPGPLGPLTPLQWDEDQQLGDLKQLLSRLCGLLLEEGSHPGAPAKPVDLAPVEAPGPLAPVPSTVCPLRRKLWQNYRNLTFDPVSANRHFYLSRQDQQVKHCRQSRGPGGPGSFELWQVQCAQSFQAGHHYWEVRASDHSVTLGVSYPQLPRCRLGPHTDNIGRGPCSWGLCVQEDSLQAWHNGEAQRLPGVSGRLLGMDLDLASGCLTFYSLEPQTQPLYTFHALFNQPLTPVFWLLEGRTLTLCHQPGAVFPLGPQEEVLS
